Data from patent US20220074941A1, “HSP90 COMBINATION THERAPY” (Sloan-Kettering Institute for Cancer Research, priority 2011, published 2022).

Assays:
[1] = test system: Hsp90 complexes in Mia-PaCa-2 cell extract; test: Nano-LC-MS/MS of PU-beads pull-downs; format: binding, human; conditions: protein identified in PU-beads pull-down of Mia-Paca 2 extract; QSTAR-Elite QTof MS
How it was run: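 Lysates pre-cleared overnight at 4 °C with control beads underwent PU-bead pull-down; bound proteins were SDS-eluted, gel-separated, digested and analyzed by nano-LC-MS/MS on a QTof. Identifications used significance p<0.05, 0.4 Da tolerances and one missed cleavage; unique peptide (spectral) counts and sequence coverage were reported.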

[2] = test system: Hsp90 complexes in K562 cell extract; test: Nano-LC-MS/MS of PU-beads pull-downs; format: binding; conditions: protein identified in PU-beads pull-down of K562 extract, QSTAR-Elite QTof MS
How it was run: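 Lysates pre-cleared overnight at 4 °C with control beads, then pulled down with PU-beads or control beads; eluted proteins (2% SDS boil) gel-separated and analysed by nano LC-MS/MS on a QTof. Mascot identification (p<0.05), spectral counts and sequence coverage evaluated in Scaffold.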

Molecule	Number of Assigned Spectra, Mia-Paca 2 [1]	Number of Assigned Spectra, K562 Prep 1 [2]	Number of Assigned Spectra, K562 Prep 2 [2]
CAMK1 (protein, UniProt Q14012 1-370, looked up) Calcium/calmodulin-dependent …: MLGAVEGPRWKQAEDIRDIYDFRDVLGTGAFSEVILAEDKRTQKLVAIKCIAKEALEGKEGSMENEIAVLHKIKHPNIVALDDIYESGGHLYLIMQLVSGGELFDRIVEKGFYTERDASRLIFQVLDAVKYLHDLGIVHRDLKPENLLYYSLDEDSKIMISDFGLSKMEDPGSVLSTACGTPGYVAPEVLAQKPYSKAVDCWSIGVIAYILLCGYPPFYDENDAKLFEQILKAEYEFDSPYWDDISDSAKDFIRHLMEKDPEKRFTCEQALQHPWIAGDTALDKNIHQSVSEQIKKNFAKSKWKQAFNATAVVRHMRKLQLGTSQEGQGQTASHGELLTPVAGGPAAGCCCRDCCVEPGTELSPTLPHQL	3	0	0
CAMK2G (protein, UniProt Q13555 1-558, looked up) Calcium/calmodulin-dependent …: MATTATCTRFTDDYQLFEELGKGAFSVVRRCVKKTSTQEYAAKIINTKKLSARDHQKLEREARICRLLKHPNIVRLHDSISEEGFHYLVFDLVTGGELFEDIVAREYYSEADASHCIHQILESVNHIHQHDIVHRDLKPENLLLASKCKGAAVKLADFGLAIEVQGEQQAWFGFAGTPGYLSPEVLRKDPYGKPVDIWACGVILYILLVGYPPFWDEDQHKLYQQIKAGAYDFPSPEWDTVTPEAKNLINQMLTINPAKRITADQALKHPWVCQRSTVASMMHRQETVECLRKFNARRKLKGAILTTMLVSRNFSAAKSLLNKKSDGGVKKRKSSSSVHLMPQSNNKNSLVSPAQEPAPLQTAMEPQTTVVHNATDGIKGSTESCNTTTEDEDLKGRVPEGRSSRDRTAPSAGMQPQPSLCSSAMRKQEIIKITEQLIEAINNGDFEAYTKICDPGLTSFEPEALGNLVEGMDFHKFYFENLLSKNSKPIHTTILNPHVHVIGEDAACIAYIRLTQYIDGQGRPRTSQSEETRVWHRRDGKWLNVHYHCSGAPAAPLQ	0	2	3
TYK2 (protein, UniProt P29597 1-1187, looked up) Non-receptor tyrosine-protein …: MPLRHWGMARGSKPVGDGAQPMAAMGGLKVLLHWAGPGGGEPWVTFSESSLTAEEVCIHIAHKVGITPPCFNLFALFDAQAQVWLPPNHILEIPRDASLMLYFRIRFYFRNWHGMNPREPAVYRCGPPGTEASSDQTAQGMQLLDPASFEYLFEQGKHEFVNDVASLWELSTEEEIHHFKNESLGMAFLHLCHLALRHGIPLEEVAKKTSFKDCIPRSFRRHIRQHSALTRLRLRNVFRRFLRDFQPGRLSQQMVMVKYLATLERLAPRFGTERVPVCHLRLLAQAEGEPCYIRDSGVAPTDPGPESAAGPPTHEVLVTGTGGIQWWPVEEEVNKEEGSSGSSGRNPQASLFGKKAKAHKAVGQPADRPREPLWAYFCDFRDITHVVLKEHCVSIHRQDNKCLELSLPSRAAALSFVSLVDGYFRLTADSSHYLCHEVAPPRLVMSIRDGIHGPLLEPFVQAKLRPEDGLYLIHWSTSHPYRLILTVAQRSQAPDGMQSLRLRKFPIEQQDGAFVLEGWGRSFPSVRELGAALQGCLLRAGDDCFSLRRCCLPQPGETSNLIIMRGARASPRTLNLSQLSFHRVDQKEITQLSHLGQGTRTNVYEGRLRVEGSGDPEEGKMDDEDPLVPGRDRGQELRVVLKVLDPSHHDIALAFYETASLMSQVSHTHLAFVHGVCVRGPENIMVTEYVEHGPLDVWLRRERGHVPMAWKMVVAQQLASALSYLENKNLVHGNVCGRNILLARLGLAEGTSPFIKLSDPGVGLGALSREERVERIPWLAPECLPGGANSLSTAMDKWGFGATLLEICFDGEAPLQSRSPSEKEHFYQRQHRLPEPSCPQLATLTSQCLTYEPTQRPSFRTILRDLTRLQPHNLADVLTVNPDSPASDPTVFHKRYLKKIRDLGEGHFGKVSLYCYDPTNDGTGEMVAVKALKADCGPQHRSGWKQEIDILRTLYHEHIIKYKGCCEDQGEKSLQLVMEYVPLGSLRDYLPRHSIGLAQLLLFAQQICEGMAYLHAQHYIHRDLAARNVLLDNDRLVKIGDFGLAKAVPEGHEYYRVREDGDSPVFWYAPECLKEYKFYYASDVWSFGVTLYELLTHCDSSQSPPTKFLELIGIAQGQMTVLRLTELLERGERLPRPDKCPCEVYHLMKNCWETEASFRPTFENLIPILKTVHEKYQGQAPSVFSVC	0	2	0
